From article PMC10139132, “Immobilization of M3 Muscarinic Receptor to Rapidly Analyze Drug—Protein Interactions and Bioactive Components in a Natural Plant” (International Journal of Molecular Sciences, 2023)

System: immobilized M3R
Test: Specificity of the M3R-immobilized column (retention times of ligands)
Assay type: binding
Details: pH 7.4

CN1[C@@H]2CC(OC(=O)[C@H](CO)c3ccccc3)C[C@H]1[C@@H]1O[C@@H]12.Cl (single isomer, unassigned; (-)) [(−)-Scopolamine hydrochloride]
retention time on the M3R-immobilized column: 4.7 min
